Source: the supplement of paper PMC12823440, “Inhibitors supercharge kinase turnover through native proteolytic circuits” (Nature, 2025)
Counter-ions that a name gives are not always drawn. Some of the results follow. Hit calls seldom repeat between salt and free forms of one compound.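 In K562 cells expressing nanoluciferase-fused kinases, luminescence was recorded at 4 h intervals between 2 and 18 h, normalized as percent of control with DMSO at 100% and a positive control at 0%. A significant (2 sigma) signal drop marks a time point as decreased. The authors' rule for a hit is not shown and takes in more than the number of time points.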

The chains behind the UniProt entries cited, without tags or fusion partners. Where a name states a change or a piece, a line headed by the entry shows the natural chain unless it says otherwise.
UniProt P36888, whole entry: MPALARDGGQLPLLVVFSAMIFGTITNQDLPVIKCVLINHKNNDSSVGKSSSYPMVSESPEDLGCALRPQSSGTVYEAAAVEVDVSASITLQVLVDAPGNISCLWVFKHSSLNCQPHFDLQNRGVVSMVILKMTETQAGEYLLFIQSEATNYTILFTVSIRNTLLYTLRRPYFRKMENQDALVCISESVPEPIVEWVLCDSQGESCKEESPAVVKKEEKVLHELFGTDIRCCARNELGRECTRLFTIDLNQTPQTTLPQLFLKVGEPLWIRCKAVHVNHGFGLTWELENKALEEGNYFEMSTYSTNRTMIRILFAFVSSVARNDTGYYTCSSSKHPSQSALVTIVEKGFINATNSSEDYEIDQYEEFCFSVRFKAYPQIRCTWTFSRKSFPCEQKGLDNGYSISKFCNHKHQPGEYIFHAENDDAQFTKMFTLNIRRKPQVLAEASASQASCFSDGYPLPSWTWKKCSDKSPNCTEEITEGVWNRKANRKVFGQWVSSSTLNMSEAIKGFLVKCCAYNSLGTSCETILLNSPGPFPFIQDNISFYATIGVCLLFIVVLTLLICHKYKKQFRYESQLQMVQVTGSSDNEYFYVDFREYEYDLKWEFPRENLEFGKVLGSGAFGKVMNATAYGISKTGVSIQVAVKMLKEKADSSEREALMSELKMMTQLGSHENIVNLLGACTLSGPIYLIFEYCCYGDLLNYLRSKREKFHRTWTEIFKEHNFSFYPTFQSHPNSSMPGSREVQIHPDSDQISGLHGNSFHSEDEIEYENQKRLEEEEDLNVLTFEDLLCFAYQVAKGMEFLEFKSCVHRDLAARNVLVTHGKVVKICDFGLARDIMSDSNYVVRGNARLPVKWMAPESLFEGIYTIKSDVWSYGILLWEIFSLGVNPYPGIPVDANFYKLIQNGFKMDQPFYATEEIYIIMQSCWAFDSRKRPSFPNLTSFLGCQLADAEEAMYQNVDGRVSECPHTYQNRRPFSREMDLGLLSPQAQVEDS
UniProt P06241, whole entry, looked up: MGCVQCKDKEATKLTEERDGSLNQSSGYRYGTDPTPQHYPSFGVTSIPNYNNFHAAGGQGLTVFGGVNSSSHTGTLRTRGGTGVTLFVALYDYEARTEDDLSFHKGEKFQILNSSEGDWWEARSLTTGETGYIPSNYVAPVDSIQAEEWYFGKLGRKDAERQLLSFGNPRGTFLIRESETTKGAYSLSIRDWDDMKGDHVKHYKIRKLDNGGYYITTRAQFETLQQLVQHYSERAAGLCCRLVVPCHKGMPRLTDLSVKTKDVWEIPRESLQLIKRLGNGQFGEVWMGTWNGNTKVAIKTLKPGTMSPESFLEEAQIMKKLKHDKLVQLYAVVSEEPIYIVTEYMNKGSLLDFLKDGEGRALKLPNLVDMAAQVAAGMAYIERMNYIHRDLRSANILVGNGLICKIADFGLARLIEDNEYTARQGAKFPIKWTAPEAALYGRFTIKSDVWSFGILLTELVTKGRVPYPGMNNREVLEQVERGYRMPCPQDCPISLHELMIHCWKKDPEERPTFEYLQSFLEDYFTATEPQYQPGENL
UniProt P49840: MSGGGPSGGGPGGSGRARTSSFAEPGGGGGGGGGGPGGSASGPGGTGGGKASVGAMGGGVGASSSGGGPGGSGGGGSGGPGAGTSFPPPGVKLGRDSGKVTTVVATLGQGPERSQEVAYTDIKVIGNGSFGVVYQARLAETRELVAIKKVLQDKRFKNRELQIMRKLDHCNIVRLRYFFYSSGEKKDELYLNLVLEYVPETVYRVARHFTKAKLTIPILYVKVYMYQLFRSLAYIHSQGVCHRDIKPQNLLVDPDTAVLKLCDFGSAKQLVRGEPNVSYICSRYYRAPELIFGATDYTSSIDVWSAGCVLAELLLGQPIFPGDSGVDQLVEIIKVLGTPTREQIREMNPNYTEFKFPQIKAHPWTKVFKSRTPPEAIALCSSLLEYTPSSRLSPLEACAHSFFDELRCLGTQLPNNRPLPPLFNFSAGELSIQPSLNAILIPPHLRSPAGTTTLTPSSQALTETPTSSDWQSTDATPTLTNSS
UniProt P14616: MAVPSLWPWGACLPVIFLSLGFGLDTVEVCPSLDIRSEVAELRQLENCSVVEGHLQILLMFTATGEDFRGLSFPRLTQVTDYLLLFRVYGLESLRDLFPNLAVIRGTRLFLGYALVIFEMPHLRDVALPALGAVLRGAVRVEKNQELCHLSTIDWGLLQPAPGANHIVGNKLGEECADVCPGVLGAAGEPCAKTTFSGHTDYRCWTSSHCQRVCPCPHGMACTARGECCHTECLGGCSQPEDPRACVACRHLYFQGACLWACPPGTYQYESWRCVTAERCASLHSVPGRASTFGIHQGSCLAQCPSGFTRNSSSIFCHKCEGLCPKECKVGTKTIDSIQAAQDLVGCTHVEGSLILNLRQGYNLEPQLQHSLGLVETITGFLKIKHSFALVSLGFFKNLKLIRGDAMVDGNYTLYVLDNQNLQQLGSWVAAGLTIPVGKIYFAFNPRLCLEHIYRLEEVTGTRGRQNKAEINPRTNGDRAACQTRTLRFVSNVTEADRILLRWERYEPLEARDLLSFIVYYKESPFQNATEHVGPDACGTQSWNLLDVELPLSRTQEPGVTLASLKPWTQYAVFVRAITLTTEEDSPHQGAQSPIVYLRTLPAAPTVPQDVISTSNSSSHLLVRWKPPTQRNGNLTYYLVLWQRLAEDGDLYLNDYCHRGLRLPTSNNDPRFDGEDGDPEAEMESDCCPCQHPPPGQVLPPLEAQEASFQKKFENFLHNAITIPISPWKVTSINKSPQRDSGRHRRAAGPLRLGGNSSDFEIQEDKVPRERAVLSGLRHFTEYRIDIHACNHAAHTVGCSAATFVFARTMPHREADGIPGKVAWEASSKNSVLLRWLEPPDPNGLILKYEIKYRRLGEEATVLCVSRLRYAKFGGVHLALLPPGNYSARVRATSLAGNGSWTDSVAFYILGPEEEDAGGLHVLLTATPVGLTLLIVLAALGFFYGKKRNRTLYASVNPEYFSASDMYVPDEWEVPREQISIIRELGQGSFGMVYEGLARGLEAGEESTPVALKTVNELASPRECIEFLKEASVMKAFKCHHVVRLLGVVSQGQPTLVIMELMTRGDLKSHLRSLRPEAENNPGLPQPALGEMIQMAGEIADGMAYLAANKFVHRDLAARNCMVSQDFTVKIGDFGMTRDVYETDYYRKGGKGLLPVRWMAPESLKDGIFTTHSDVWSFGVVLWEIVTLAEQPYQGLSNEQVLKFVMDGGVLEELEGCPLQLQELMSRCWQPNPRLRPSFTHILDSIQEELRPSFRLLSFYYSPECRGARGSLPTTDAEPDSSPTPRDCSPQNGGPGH
UniProt Q9Y616: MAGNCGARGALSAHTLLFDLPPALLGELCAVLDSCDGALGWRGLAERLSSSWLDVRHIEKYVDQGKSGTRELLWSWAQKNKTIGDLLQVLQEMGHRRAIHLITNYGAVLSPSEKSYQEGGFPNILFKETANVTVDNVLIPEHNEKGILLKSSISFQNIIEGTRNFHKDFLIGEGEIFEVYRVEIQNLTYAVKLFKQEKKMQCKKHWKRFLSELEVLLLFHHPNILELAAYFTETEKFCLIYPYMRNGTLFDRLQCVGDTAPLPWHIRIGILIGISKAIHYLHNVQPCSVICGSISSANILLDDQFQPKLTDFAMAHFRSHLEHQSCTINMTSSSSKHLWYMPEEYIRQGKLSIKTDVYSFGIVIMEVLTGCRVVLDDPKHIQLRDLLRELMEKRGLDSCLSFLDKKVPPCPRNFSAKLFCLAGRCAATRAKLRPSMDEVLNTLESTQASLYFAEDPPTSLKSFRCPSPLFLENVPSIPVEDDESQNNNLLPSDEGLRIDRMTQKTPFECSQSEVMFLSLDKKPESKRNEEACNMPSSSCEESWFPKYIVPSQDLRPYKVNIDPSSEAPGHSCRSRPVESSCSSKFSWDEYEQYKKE
UniProt P06239: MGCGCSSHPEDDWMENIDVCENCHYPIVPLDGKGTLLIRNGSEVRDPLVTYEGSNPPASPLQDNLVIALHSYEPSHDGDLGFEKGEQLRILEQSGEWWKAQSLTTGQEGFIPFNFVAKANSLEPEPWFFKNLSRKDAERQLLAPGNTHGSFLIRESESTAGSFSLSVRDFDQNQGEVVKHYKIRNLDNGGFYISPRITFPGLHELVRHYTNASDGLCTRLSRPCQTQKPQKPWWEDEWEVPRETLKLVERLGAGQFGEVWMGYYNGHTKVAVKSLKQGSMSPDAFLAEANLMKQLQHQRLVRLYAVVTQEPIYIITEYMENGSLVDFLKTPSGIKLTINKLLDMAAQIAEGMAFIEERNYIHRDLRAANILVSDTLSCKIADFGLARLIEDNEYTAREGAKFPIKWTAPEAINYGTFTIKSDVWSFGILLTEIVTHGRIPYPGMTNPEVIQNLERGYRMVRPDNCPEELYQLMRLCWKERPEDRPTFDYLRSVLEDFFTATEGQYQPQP
UniProt P53667: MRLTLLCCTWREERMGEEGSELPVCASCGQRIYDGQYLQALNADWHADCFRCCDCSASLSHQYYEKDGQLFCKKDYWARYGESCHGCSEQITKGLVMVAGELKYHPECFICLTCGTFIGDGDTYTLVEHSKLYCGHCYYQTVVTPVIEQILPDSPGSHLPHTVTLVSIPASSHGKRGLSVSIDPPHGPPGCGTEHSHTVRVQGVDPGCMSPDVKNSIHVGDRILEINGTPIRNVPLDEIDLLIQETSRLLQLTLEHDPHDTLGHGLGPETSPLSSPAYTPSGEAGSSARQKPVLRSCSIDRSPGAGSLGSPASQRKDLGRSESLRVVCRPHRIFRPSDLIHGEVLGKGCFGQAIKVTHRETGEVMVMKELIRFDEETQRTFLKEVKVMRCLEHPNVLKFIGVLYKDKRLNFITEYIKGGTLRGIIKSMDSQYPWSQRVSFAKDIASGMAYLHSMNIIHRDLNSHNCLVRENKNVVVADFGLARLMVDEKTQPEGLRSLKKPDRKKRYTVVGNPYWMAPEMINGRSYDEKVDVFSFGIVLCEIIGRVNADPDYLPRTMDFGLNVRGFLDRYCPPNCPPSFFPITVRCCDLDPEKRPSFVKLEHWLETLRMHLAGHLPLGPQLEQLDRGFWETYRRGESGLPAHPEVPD
UniProt P53671: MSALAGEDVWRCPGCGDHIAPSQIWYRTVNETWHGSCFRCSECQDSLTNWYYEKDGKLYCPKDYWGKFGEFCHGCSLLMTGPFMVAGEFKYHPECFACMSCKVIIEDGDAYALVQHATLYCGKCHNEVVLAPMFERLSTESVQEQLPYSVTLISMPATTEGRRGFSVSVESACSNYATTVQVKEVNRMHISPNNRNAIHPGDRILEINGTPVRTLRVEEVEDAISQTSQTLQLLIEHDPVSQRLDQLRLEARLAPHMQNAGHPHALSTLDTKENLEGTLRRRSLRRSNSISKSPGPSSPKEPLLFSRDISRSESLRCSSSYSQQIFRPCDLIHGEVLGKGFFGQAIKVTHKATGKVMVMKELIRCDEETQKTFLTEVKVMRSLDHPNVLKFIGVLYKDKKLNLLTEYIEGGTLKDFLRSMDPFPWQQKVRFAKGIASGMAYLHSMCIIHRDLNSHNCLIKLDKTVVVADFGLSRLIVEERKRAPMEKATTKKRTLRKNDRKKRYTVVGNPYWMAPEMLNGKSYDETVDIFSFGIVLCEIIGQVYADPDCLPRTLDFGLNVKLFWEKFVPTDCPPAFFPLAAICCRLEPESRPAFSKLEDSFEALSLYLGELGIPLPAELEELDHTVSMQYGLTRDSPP

Tests used:
Experiment in all cases: number of time points (of 5) at which kinase-Nluc abundance scored as decreased, DMSO-normalised (count); higher = more persistent destabilization
Conditions in all cases: K562; 2-18 h
FLT3 = FLT3 (UniProt P36888)
FYN = FYN (UniProt P06241)
GSK3A = GSK3A (UniProt P49840)
HER2 = HER2 (UniProt P04626)
INSRR = INSRR (UniProt P14616)
IRAK3 = IRAK3 (UniProt Q9Y616)
JAK1 = JAK1 (UniProt P23458)
LCK = LCK (UniProt P06239)
LIMK1 = LIMK1 (UniProt P53667)
LIMK2 = LIMK2 (UniProt P53671)

Compound	number of time points (FLT3)	number of time points (FYN)	number of time points (GSK3A)	number of time points (HER2)	number of time points (INSRR)	number of time points (IRAK3)	number of time points (JAK1)	number of time points (LCK)	number of time points (LIMK1)	number of time points (LIMK2)
FC(F)c1nc2ccccc2n1-c1nc(N2CCOCC2)nc(N2CCOCC2)n1 (2 µM)	0	0	0	0	0	0	0	0	3	0
O=C(N/N=C/c1coc2ccccc2c1=O)c1cccnc1 (10 µM)	0	0	0	0	0	0	0	0	0	0
C=CC(=O)Nc1cc(C)ccc1Nc1nc(Nc2cc(OC)ncc2C)ncc1C(F)(F)F (10 µM)	0	0	0	0	0	0	0	0	0	0
O=C1NC(=O)/C(=C/c2ccc3nccnc3c2)S1 (10 µM)	0	0	0	0	0	0	0	0	0	0
Cc1cccc(Oc2cnc(=O)[nH]c2)c1 [Tolimidone] (10 µM)	0	0	0	0	0	0	0	0	0	0
CC(C)(C)c1cc(O)ccc1O (10 µM)	0	0	0	0	0	0	0	0	0	0
COCCNc1nc2ccc(C#CC3(O)CCCCC3)cc2n1-c1ccnc(N)n1 (10 µM)	0	0	0	0	0	0	0	0	0	0
Cn1cc(-c2cnn3c(N)c(Br)c([C@@H]4CCCNC4)nc23)cn1 (2.5 µM)	4	1	0	1	1	1	3	0	2	3
CCN1CCN(Cc2ccc(Nc3ncc(F)c(-c4cc(F)c5nc(C)n(C(C)C)c5c4)n3)nc2)CC1 [Abemaciclib] (2 µM)	0	0	0	0	0	0	0	0	0	0
O=C(Nc1ccc(CN2CCOCC2)cc1)c1ccc(-c2cccc(Cl)c2)o1 (10 µM)	0	0	0	0	0	0	0	0	0	0
O=C1N[C@@H](Cc2c[nH]c3ccccc23)C(=O)N2CCC[C@@H]12 [Brevianamide F] (10 µM)	0	0	0	0	0	0	0	0	0	0
CC(C)(C)c1nc(-c2cccc(NS(=O)(=O)c3c(F)cccc3F)c2F)c(-c2ccnc(N)n2)s1 [Dabrafenib] (2.5 µM)	0	0	0	0	0	0	0	0	5	0
Cn1cnc(Cn2ccc3ccc(CNCc4[nH]c5ccccc5c4[C@H]4NC(=O)c5ccc(O)cc54)cc32)c1 (10 µM)	0	0	0	0	0	0	0	0	0	0
Cn1nccc1Nc1nccc(-c2ccn([C@H](CO)c3ccc(Cl)c(F)c3)c(=O)c2)n1 [Ravoxertinib] (10 µM)	0	0	0	0	0	0	0	0	0	0
Cn1ncc(Cl)c1-c1cc(C(=O)N[C@H](CN)Cc2ccc(F)c(F)c2)oc1Cl [Uprosertib] (10 µM)	0	0	0	0	0	0	0	0	0	0
COc1cc2ncnc(Nc3ccc(Cl)cc3F)c2cc1OC (10 µM)	0	0	0	0	0	0	0	0	0	0
N#Cc1c(C2CCNCC2)cc(-c2c(O)cccc2OCC2CC2)nc1N [ACHP (Hydrochloride)] (10 µM)	0	0	0	0	0	0	0	0	0	0
N#CCC1CCN(c2nc(Nc3ccc(N4CCC(O)CC4)cc3)c3c(=O)[nH]ncc3n2)CC1 [Gusacitinib] (10 µM)	0	1	0	0	0	3	0	0	1	0

Sorted by formula weight (smallest number first): part of the list above
Compound	number of time points (FLT3)	number of time points (FYN)	number of time points (GSK3A)	number of time points (HER2)	number of time points (INSRR)	number of time points (IRAK3)	number of time points (JAK1)	number of time points (LCK)	number of time points (LIMK1)	number of time points (LIMK2)
CC(C)(C)c1cc(O)ccc1O (10 µM)	0	0	0	0	0	0	0	0	0	0
O=C1N[C@@H](Cc2c[nH]c3ccccc23)C(=O)N2CCC[C@@H]12 [Brevianamide F] (10 µM)	0	0	0	0	0	0	0	0	0	0
Cn1cnc(Cn2ccc3ccc(CNCc4[nH]c5ccccc5c4[C@H]4NC(=O)c5ccc(O)cc54)cc32)c1 (10 µM)	0	0	0	0	0	0	0	0	0	0

Following part:

Compound	number of time points (FLT3)	number of time points (FYN)	number of time points (GSK3A)	number of time points (HER2)	number of time points (INSRR)	number of time points (IRAK3)	number of time points (JAK1)	number of time points (LCK)	number of time points (LIMK1)	number of time points (LIMK2)
O=S(=O)(NCCCN1c2ccccc2CCc2ccc(Cl)cc21)c1ccc(OC(F)(F)F)cc1 (2.5 µM)	0	0	0	0	0	0	0	0	0	0
c1cncc(CN2CCC(n3ncc4c(N5CCOCC5)nc(-c5ccc6[nH]ccc6c5)nc43)CC2)c1 (10 µM)	0	4	0	2	4	2	4	0	5	4
CN1CCN(c2cccc(Nc3nc4c(-c5ccc(S(C)(=O)=O)cc5)cccn4n3)c2)CC1 (10 µM)	0	0	0	0	0	0	0	0	0	0
C[C@]1(O)CCN(c2nc(N3C[C@H](O)[C@@H](O)C3)cc(C(F)(F)F)c2C#N)C1 (10 µM)	0	0	0	0	0	0	0	0	0	0
Cc1ccccc1-c1c2nccc(-c3ccc(F)cc3F)c2cc[n+]1[O-] (10 µM)	0	0	0	0	0	0	0	0	0	0
C[C@@H]1CC[C@@H](Nc2nc(NC(C)(C)C)ncc2C(N)=O)C[C@H]1O (10 µM)	0	0	0	0	0	0	0	0	0	0
COc1cc(Nc2ncc(F)c(Nc3ccc4c(n3)N(COP(=O)(O)O)C(=O)C(C)(C)O4)n2)cc(OC)c1OC [Fostamatinib (disodium hexahydrate)] (10 µM)	0	0	0	0	0	0	0	0	2	0
Cc1ccc2cc(-c3c(C)ccc(C(=O)c4c(-c5ccccc5)n(C)n(-c5ccccc5)c4=O)c3N)ccc2n1 (2.5 µM)	0	0	0	0	0	0	0	0	0	0
NC(=O)c1ccc(-c2nc(-c3ccc4c(c3)OCCO4)c(-c3ccccn3)[nH]2)cc1 (10 µM)	0	1	0	0	0	0	0	0	0	0
Nc1nc(F)nc2c1ncn2[C@@H]1O[C@H](CO)[C@@H](O)[C@@H]1O [Fludarabine] (10 µM)	0	0	0	0	0	0	0	0	0	0
CCC(C)N1c2ccccc2C(=O)N(C)c2cnc(Nc3ccc(C(=O)N4CCC(N5CCN(C)CC5)CC4)cc3OC)nc21 (stereo not given) (2.5 µM)	0	0	0	0	0	0	0	0	0	0
Nc1ncnc2c1c(-c1cccc(OCc3ccccc3)c1)cn2C1CC(CN2CCC2)C1 (stereo not given) (2.5 µM)	0	0	0	0	0	0	0	0	0	0
NS(=O)(=O)c1ccc(-n2nc(C(F)(F)F)cc2-c2ccc(Cl)cc2)cc1 (10 µM)	0	0	0	0	0	0	0	0	0	0
CNc1nc(Nc2ccc(C(=O)N3CCOCC3)cc2OC)nc2[nH]cc(Cl)c12 (2.5 µM)	0	0	0	0	0	0	0	0	0	0
CC[C@@H](Oc1nc(Oc2cc(C)cc(-c3cccc(CN)c3)c2)c(F)cc1F)C(=O)O (10 µM)	0	0	0	0	0	0	0	0	0	0
Cc1cc(Nc2ncnc3ccc(NC4=NC(C)(C)CO4)cc23)ccc1Oc1ccn2ncnc2c1 [Tucatinib] (2.5 µM)	0	0	0	0	0	0	0	0	0	0
C[C@@H](c1ccc(F)cc1)n1nnc2cnc3ccc(-c4ccc5ocnc5c4)cc3c21 (10 µM)	0	0	0	0	0	0	0	0	0	0
